The data set in a line: self-splicing fitness, log relative to wild type (ln ratio); higher = more splicing; Tetrahymena group I intron in knt gene, E. coli kanamycin selection, DiMSum; sequences stand for … in CUCUCU…GGAGGGAAAAGUUAUCAGGCAUGCACCUGGUAGCUAGUCUUUAAACCAAUAGAUUGCAUCGGUUUAAAAGGCAAGACCGUCAAAUUGCGGGAAAGGGGUCAACAGCCGUUCAGUACCAAGUCUCAGGGGAAACUUUGAGAUGGCCUUGCAAAGGGUAUGGUAAUAAGCUGACGGACAUGGUCCUAACCACGCAGCCAAGUCCUAAGUCAACAGAUCUUCUGUUGAUAUGGAUGCAGUUCACAGACUAAAUGUCGGUCGGGGAAGAUGUAUUCUUCUCAUAAGAUAUAGUCGGACCUCUCCUUAAUGGGAGCUAGCGGAUGAAGUGAUGCAACACUGGAGCCGCUGGGAACUAAUUUGUAUGCGAAAGUAUAUUGAUUAGUUUUGGAGUACUCGUGGUCG
The procedure, abridged:
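Pooled colonies went to amplicon sequencing on an Illumina HiSeq 2500 after six replicate transformations. The plates were LB agar with 100 μg/mL carbenicillin, 50 μM IPTG and 0.2% rhamnose, with or without 25 μg/mL kanamycin, incubated overnight at 37°C or 30°C. The E. coli BL21(DE3) library had all eight P1ex-region intron nucleotides randomised, the intron placed in the knt kanamycin-resistance gene on pET-22b(+). DiMSum fitness is the error-weighted combination of replicate fold changes, kanamycin against none, normalised to wild type.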

± gives the uncertainty stated by the source. The uncertainty is large for many entries.

As to UGUGAGCAAUAUUACGCGUC, under “37 °C”, the “self-splicing fitness (ln)” value was -3.05 ± 0.61. Still for that read-out and setting: with GGUUAGCAAUAUUACGCCCC the figure was -1.98 ± 1.1. As to GACAAGCAAUAUUACGAGAG, the “self-splicing fitness (ln)” value reads like this: (30 °C) -3.18 ± 0.17; (37 °C) -2.96 ± 0.21. Turning to UCGGAGCAAUAUUACGCCAG, the “self-splicing fitness (ln)” value reads like this: (30 °C) -3.92 ± 0.6; (37 °C) -0.778 ± 0.64. The corresponding values for CUCUAGCAAUAUUACGACUC are -2.19 ± 0.69 and -1.23 ± 0.55. Regarding GCGUAGCAAUAUUACGACGC, where the note is “37 °C”, the “self-splicing fitness (ln)” value was -2.25 ± 0.54.

Turning to CUUCAGCAAUAUUACGAUGC, the “self-splicing fitness (ln)” value runs as follows: (30 °C) -2.93 ± 0.21; (37 °C) -2.23 ± 0.23. The corresponding values for CGCAAGCAAUAUUACGCUUA are -3.58 ± 0.35 and -1.8 ± 0.18. As for CGGGAGCAAUAUUACGUCCU, the “self-splicing fitness (ln)” value (37 °C) was -2.06 ± 0.51.

In the case of GGCAAGCAAUAUUACGCCCG, the “self-splicing fitness (ln)” value (37 °C) is -1.54 ± 0.69. Consider UCGGAGCAAUAUUACGGGCU, for which the “self-splicing fitness (ln)” value was -2.08 ± 0.8 (30 °C) and -1.54 ± 1.2 (37 °C). As to AGGUAGCAAUAUUACGAAGU, the “self-splicing fitness (ln)” value (30 °C) is -3.22 ± 0.026 and the “self-splicing fitness (ln)” value (37 °C) is -1.56 ± 0.037.

For GCAGAGCAAUAUUACGAUCU, the “self-splicing fitness (ln)” value is -3.66 ± 1 (30 °C) and -1.41 ± 0.51 (37 °C). Consider CUCGAGCAAUAUUACGCAAU, for which the “self-splicing fitness (ln)” value (37 °C) is -3.22 ± 0.61. For CUUGAGCAAUAUUACGGCCU, the “self-splicing fitness (ln)” value (37 °C) is -3.02 ± 0.74. As for UAUAAGCAAUAUUACGCUUC, the “self-splicing fitness (ln)” value reads like this: (30 °C) -3.58 ± 0.38; (37 °C) -3.09 ± 1. As to AUGGAGCAAUAUUACGACCA, the “self-splicing fitness (ln)” value is, setting by setting: (30 °C) -2.09 ± 1.4; (37 °C) -0.897 ± 0.61. Turning to CGAGAGCAAUAUUACGCGGC, where the note is “30 °C”, the “self-splicing fitness (ln)” value was -2.67 ± 0.62. As to GUGUAGCAAUAUUACGCCAC, the “self-splicing fitness (ln)” value (30 °C) is -2.67 ± 0.63. In the case of UCCAAGCAAUAUUACGGGAG, the “self-splicing fitness (ln)” value (30 °C) was -2.57 ± 0.16 and the “self-splicing fitness (ln)” value (37 °C) was -2.9 ± 0.35. For CUAGAGCAAUAUUACGAAAA, the “self-splicing fitness (ln)” value (37 °C) was -0.996 ± 0.53. With CUUGAGCAAUAUUACGACAC, the “self-splicing fitness (ln)” value (30 °C) is -2.71 ± 0.56.

Regarding CGCGAGCAAUAUUACGGUGC, the “self-splicing fitness (ln)” value (30 °C) is -3.57 ± 0.52. On to CUCUAGCAAUAUUACGCAAA, for which the “self-splicing fitness (ln)” value is -3.54 ± 0.73 (30 °C) and -2.39 ± 0.77 (37 °C).

AACGAGCAAUAUUACGACCG: the “self-splicing fitness (ln)” value (30 °C) was -3.46 ± 0.34 and the “self-splicing fitness (ln)” value (37 °C) is -1.84 ± 1.1. For the sequence ACGCAGCAAUAUUACGUGUU, the “self-splicing fitness (ln)” value (30 °C) was -4.19 ± 0.1 and the “self-splicing fitness (ln)” value (37 °C) is -2.85 ± 0.14. For the sequence CUGAAGCAAUAUUACGGAAC, the “self-splicing fitness (ln)” value (30 °C) was -4.55 ± 0.52.

Turning to UAAGAGCAAUAUUACGCCUC, the “self-splicing fitness (ln)” value by setting is: (30 °C) -2.02 ± 1.2; (37 °C) -2.11 ± 0.56. For CGGGAGCAAUAUUACGGCGC, in that order: -3.97 ± 0.6 and -1.59 ± 0.88. As to GUGAAGCAAUAUUACGUUGC, under “30 °C”, the “self-splicing fitness (ln)” value is -4.23 ± 0.75. With UACAAGCAAUAUUACGCAAC, the “self-splicing fitness (ln)” value (30 °C) is -3.75 ± 0.73. As to UAGGAGCAAUAUUACGGAGC, the “self-splicing fitness (ln)” value (37 °C) was -1.3 ± 0.6. Turning to AUCUAGCAAUAUUACGGGGC, the “self-splicing fitness (ln)” value (37 °C) is -2.85 ± 0.74. Same read-out and setting: next, UAGGAGCAAUAUUACGAAUA: -1.05 ± 0.65.

Regarding CUAUAGCAAUAUUACGCCAU, the “self-splicing fitness (ln)” value runs as follows: (30 °C) -2.66 ± 0.39; (37 °C) -2.45 ± 0.37. Turning to CCUCAGCAAUAUUACGUGGC, the “self-splicing fitness (ln)” value by setting is: (30 °C) -3.94 ± 0.22; (37 °C) -3.01 ± 0.24. Regarding CUCCAGCAAUAUUACGGCAU, under “30 °C”, the “self-splicing fitness (ln)” value is -3.64 ± 0.6. Take CGACAGCAAUAUUACGUAUA: the “self-splicing fitness (ln)” value by setting is: (30 °C) -4.3 ± 0.47; (37 °C) -1.54 ± 0.27. For the sequence UCUGAGCAAUAUUACGGUUC, the “self-splicing fitness (ln)” value (30 °C) was -3.5 ± 0.61. CCGGAGCAAUAUUACGAUCC: under “37 °C”, the “self-splicing fitness (ln)” value is -1.13 ± 0.87. For CACGAGCAAUAUUACGGCGC, the “self-splicing fitness (ln)” value (30 °C) was -5.09 ± 1. For CCUAAGCAAUAUUACGCAAG, the “self-splicing fitness (ln)” value (37 °C) was -2.05 ± 0.5. Turning to CCCUAGCAAUAUUACGAAUU, the “self-splicing fitness (ln)” value by setting is: (30 °C) -3.99 ± 0.72; (37 °C) -2.22 ± 0.6. On to GCAGAGCAAUAUUACGCGCU, for which the “self-splicing fitness (ln)” value (30 °C) is -4.12 ± 0.73.

For the sequence GGCGAGCAAUAUUACGCGUC, the “self-splicing fitness (ln)” value (30 °C) was -4.33 ± 0.72. The same measure, in the same setting: with UGUGAGCAAUAUUACGAUUU the figure was -4.55 ± 0.6; with GUAUAGCAAUAUUACGGGGC, -4.73 ± 1.

These data come from the supplement of paper PMC7877785.
